This note sets out measurements from US9731027B2 (Ipsen Pharma S.A.S., priority 2012, dated 2017).

The data set can be described thus: general procedure: Fmoc solid-phase peptide synthesis; Rink amide MBHA resin; pre-loaded Fmoc-Phe-2ClTrt / Fmoc-Tyr(tBu)-2-ClTrt resin 0.58 mmol/g; HBTU/HOBt/DIEA; HCTU. Conditions: conjugation step, HPLC / UPLC.

For “Dop1-psi(CH2NH)-cyclo(DLys-Arg-Phe-4Pal-DTrp-Lys-Thr-Tyr)”, the “final purity (method not given)” value is on record as 94%.
